# Reference: PubChem BioAssay AID504784 (Drosophila RNAi Screening Center, 2011)
# Screen: 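Genome-wide knock-down for genes giving too much or too little stored lipid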 (primary screen)
# System: Drosophila Kc167 embryonic cells
# Knock-down reagent: long dsRNA against Drosophila genes, about 250 ng dsRNA per well
# Duration: 4 days
# Treatment: cells fed 400 µM oleic acid bound to BSA
# Measurement: 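Microscope images give a droplet-to-nucleus area ratio, taken as log and converted to a screen-wide B-score; higher values mean greater lipid storage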
# Reading the numbers: droplet/nuclear area B-score: higher = more stored lipid (overstorage)
# In all, the deposit lists about 17,000 reagents; below is an unselected part of those that have a named target and a result. 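Each column is one replicate's B-score; the combined score over replicates was not deposited, so single values may mislead.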 Further read-outs or replicates are left out here.
gene,DRSC id,"droplet/nuclear area B-score, replicate 1","droplet/nuclear area B-score, replicate 2"
CG3558 (GeneID 48421),DRSC00615,0.0662,-0.419
CG10283 (GeneID 35102),DRSC02034,0.165,0.962
GstO3 (GeneID 38972),DRSC10710,-0.506,-1.16
Atac2 (GeneID 35113),DRSC02053,0.119,0.725
CG18476 (GeneID 41404),DRSC15281,0.868,-0.565
CG14286 (GeneID 42280),DRSC14767,0.479,0.66
CG5790 (GeneID 35095),DRSC02896,0.482,0.54
Eaf6 (GeneID 38637),DRSC09901,0.624,-0.619
CG3690 (GeneID 31047),DRSC18170,0.0985,-0.753
CG3690 (GeneID 31047),DRSC18641,0.244,-1.07
Amt (GeneID 41841),DRSC16055,1.74,0.0147
CG17230 (GeneID 41376),DRSC15203,1.9,-0.0563
Sema1b (GeneID 37007),DRSC07550,2.5,-0.0373
CG15800 (GeneID 37763),DRSC04271,0.352,-0.839
Pgcl (GeneID 30984),DRSC18815,-1.13,-0.754
CG34348 (GeneID 32072),DRSC19425,0.0176,-0.517
CG34348 (GeneID 32072),DRSC19644,-1.96,-2.08
Blos4 (GeneID 39219),DRSC10151,-0.0442,0.782
l(3)neo38 (GeneID 41423),DRSC14946,-1.67,0.164
l(3)neo38 (GeneID 41423),DRSC16138,0.0142,-0.124
l(3)neo38 (GeneID 41423),DRSC23262,-0.00618,-0.0859
cactin (GeneID 33043),DRSC20576,0.853,1.29
CG13252 (GeneID 40289),DRSC11700,-0.814,-0.0662
l(1)G0196 (GeneID 33137),DRSC20591,-0.788,-0.537
l(1)G0196 (GeneID 33137),DRSC20628,-1.81,-0.859
l(1)G0196 (GeneID 33137),DRSC20629,0.0174,2.11
sisA (GeneID 32068),DRSC20374,0.0123,1.09
CG15517 (GeneID 43537),DRSC15056,-1.07,-2.59
peb (GeneID 31391),DRSC18817,0.441,1.07
peb (GeneID 31391),DRSC23057,-0.595,-0.0467
nol (GeneID 64867),DRSC21425,-0.188,-0.401
mei-9 (GeneID 31373),DRSC18792,0.141,1.45
CG13059 (GeneID 39803),DRSC09942,0.519,-0.594
rod (GeneID 43719),DRSC17047,1.05,0.347

Taken from above:
Entry of sisA (GeneID 32068) [DRSC20374] under “droplet/nuclear area B-score, replicate 2”: 1.09
Blos4 (GeneID 39219) [DRSC10151], droplet/nuclear area B-score, replicate 1 = -0.0442
